The test deals with SteC_(210-429;K256H) (Salmonella Typhimurium strain 14028s) (UniProt D0ZIB5). The test is described as follows: SEC-MALLS.

Results are given in words; binding and its absence hold for the method and conditions named.

In the case of “SteC_(210-429;K256H) (from UniProt D0ZIB5 210-429) (domain or fragment)”, the binding entry is given as “no binding (tested: 8 mg/ml)”.

The values above are taken from paper doi:10.1101/2025.03.01.640964.
